Results are given in words; binding and its absence hold for the method and conditions named. Binding seen in cells or lysates may run through a third protein. Some entries that bind do so weakly or less than the wild type.
T1: Noc1-TAP (S. cerevisiae) (UniProt Q12176)
T1 sequence: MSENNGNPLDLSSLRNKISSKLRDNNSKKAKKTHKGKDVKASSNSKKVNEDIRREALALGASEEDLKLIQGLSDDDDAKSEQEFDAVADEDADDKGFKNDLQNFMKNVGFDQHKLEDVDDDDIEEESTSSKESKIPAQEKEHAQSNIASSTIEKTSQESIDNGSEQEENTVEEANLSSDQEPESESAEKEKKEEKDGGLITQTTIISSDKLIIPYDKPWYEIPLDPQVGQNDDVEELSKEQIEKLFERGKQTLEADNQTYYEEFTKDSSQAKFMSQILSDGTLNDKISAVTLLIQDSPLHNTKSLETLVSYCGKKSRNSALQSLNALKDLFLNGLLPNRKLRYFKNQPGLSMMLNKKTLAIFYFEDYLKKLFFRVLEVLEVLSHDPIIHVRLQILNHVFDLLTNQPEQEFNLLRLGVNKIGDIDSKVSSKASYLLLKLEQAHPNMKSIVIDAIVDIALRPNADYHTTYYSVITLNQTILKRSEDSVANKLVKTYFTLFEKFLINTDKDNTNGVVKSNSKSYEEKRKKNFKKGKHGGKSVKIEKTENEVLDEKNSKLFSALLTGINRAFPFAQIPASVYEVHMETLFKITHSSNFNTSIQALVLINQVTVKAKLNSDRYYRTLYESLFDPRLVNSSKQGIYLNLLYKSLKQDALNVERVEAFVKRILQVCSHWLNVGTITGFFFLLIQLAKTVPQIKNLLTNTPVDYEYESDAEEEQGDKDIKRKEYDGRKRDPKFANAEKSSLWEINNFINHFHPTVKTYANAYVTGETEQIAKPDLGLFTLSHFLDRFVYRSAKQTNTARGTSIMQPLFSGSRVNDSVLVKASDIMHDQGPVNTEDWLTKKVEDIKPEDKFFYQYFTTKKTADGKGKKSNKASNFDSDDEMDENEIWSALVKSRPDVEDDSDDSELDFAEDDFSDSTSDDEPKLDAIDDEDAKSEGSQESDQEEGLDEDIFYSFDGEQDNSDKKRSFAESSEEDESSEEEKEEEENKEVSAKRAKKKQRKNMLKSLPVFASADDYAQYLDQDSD

By UniProt entry, the sequences of proteins in these tests, tags left out.
UniProt P53131: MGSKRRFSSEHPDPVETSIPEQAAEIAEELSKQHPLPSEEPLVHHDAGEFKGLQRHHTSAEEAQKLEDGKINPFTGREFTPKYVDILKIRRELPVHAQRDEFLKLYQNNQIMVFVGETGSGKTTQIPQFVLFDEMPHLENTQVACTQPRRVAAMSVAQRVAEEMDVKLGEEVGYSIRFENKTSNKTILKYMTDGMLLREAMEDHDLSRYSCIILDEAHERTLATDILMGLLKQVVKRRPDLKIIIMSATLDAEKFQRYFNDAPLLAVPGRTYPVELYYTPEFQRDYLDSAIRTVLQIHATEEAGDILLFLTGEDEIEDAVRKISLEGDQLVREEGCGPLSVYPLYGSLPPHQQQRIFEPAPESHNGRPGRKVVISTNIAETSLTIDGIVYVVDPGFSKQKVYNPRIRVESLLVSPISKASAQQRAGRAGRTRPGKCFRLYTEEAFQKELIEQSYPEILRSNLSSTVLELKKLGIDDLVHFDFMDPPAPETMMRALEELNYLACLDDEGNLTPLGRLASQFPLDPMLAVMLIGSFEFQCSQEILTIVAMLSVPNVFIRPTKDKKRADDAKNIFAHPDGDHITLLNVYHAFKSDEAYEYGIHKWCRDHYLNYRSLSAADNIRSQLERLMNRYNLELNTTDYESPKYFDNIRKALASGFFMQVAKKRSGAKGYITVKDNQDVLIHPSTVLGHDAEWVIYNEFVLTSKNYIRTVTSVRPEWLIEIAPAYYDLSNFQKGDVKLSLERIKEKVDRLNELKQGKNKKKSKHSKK
UniProt P34241: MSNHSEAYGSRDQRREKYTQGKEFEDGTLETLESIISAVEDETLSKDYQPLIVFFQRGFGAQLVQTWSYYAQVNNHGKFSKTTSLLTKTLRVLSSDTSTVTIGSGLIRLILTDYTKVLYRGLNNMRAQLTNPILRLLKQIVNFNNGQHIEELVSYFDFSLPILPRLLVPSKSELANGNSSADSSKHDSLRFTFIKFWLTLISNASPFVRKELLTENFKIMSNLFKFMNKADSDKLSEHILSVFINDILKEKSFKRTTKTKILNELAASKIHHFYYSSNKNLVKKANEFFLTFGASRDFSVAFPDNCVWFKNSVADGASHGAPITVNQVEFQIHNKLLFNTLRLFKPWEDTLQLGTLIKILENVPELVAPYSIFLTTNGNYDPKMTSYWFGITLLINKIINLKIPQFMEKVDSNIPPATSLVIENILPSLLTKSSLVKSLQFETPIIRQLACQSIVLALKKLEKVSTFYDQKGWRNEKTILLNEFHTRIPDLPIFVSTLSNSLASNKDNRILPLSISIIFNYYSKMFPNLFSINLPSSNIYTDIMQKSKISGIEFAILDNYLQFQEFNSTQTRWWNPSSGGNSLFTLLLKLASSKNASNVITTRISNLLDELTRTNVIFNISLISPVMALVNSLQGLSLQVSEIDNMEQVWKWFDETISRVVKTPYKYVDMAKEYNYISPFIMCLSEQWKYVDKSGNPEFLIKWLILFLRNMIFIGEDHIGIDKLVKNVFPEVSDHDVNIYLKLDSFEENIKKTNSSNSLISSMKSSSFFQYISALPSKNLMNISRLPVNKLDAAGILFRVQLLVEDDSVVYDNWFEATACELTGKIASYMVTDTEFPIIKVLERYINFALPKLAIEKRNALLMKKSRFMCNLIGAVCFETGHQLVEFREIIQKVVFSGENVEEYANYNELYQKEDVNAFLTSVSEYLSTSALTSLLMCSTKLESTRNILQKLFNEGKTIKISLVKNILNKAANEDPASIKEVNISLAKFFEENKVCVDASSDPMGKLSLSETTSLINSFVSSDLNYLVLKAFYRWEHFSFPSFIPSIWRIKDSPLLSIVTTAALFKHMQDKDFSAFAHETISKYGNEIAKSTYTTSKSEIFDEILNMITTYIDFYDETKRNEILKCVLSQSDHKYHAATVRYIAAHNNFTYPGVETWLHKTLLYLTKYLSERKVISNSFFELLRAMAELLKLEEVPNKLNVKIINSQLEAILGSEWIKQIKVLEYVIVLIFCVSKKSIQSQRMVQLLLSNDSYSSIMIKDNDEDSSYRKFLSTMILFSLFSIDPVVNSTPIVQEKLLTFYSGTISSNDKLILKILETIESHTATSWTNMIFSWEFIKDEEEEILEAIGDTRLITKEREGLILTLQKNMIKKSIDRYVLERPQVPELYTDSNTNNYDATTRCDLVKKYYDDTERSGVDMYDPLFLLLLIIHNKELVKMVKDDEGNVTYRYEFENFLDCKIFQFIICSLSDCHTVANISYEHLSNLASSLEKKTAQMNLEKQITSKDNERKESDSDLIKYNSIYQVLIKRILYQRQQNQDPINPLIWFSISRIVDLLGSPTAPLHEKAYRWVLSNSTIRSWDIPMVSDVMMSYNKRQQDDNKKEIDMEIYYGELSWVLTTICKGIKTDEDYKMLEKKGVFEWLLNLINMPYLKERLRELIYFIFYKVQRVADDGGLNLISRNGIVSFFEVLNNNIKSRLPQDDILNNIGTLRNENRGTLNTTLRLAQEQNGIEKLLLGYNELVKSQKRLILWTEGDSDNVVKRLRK

B1: Nhp2 (protein, UniProt P32495 1-156)
chain: MGKDNKEHKESKESKTVDNYEARMPAVLPFAKPLASKKLNKKVLKTVKKASKAKNVKRGVKEVVKALRKGEKGLVVIAGDISPADVISHIPVLCEDHSVPYIFIPSKQDLGAAGATKRPTSVVFIVPGSNKKKDGKNKEEEYKESFNEVVKEVQAL
B2: Rsa3 (protein, UniProt Q05942 1-220)
chain: MSAGDISAINIKSVKKNRRRKKRRTADVSSSDSSSSDPSSESEKEEIQNGAIEEHVGENGKSDHVFSKGNDEDKQEDIAIEVSDVELTDEESKDLKLNSKEVIDDLTKISLSKIPEPTKSQNKEGFMNASKIAENIKLAREEYNELAENFVPKGKDKTKLREEYLNLLFENYGDDINRLRAAPDFTNKSLSILADALQEGIGMFDIGELELVLKNKEMEN
B3: Dbp6 (protein, UniProt P53734 1-629)
chain: MFASRFDPSQLTAPAASAPEGIVGTTPPAIVPLKRQATESDNEEYGSHQDSDESSNSSSEEDEDRMQVDYGASEEDSSEVEEEESKPSTHSTVLSRFKQTVSLQERLGASDIAESKEDEGIEDEAASTHQLKQIPQPEFVKNPMNLNTNSLQFKSTGWLNTEKIYYDNSLIKPFSDYANELEAKLLQNICKNFSTNTFPIQSIILDSILPVLNFTLNVSKRNFTRRIGDILVNAATGSGKTLAYSIPIVQTLFKRQINRLRCIIIVPTKLLINQVYTTLTKLTQGTSLIVSIAKLENSLKDEHKKLSNLEPDILITTPGRLVDHLNMKSINLKNLKFLIIDEADRLLNQSFQGWCPKLMSHLKTDKLDTLPGNVIKMIFSATLTTNTEKLNGLNLYKPKLFLKQTDKLYQLPNKLNEFNINIPTAKSVYKPLILLYSICQFMAHSPIAAKILIFVKSNESSIRLSKLLQLICESRSQSSVLKNLQNLAVSINSVNSNNSKAENKKIVANFSHHSESAGITILITTDIMSRGIDINDITQVINYDPPMSSQQYVHRVGRTARANELGSAYNLLVGRGERTFFDDLNKDLDRDGKSVQPLELDFTLLESDSELYTSSLESLKNYHNNTAQA
B4: Nop8 (protein, UniProt Q08287 1-484)
chain: MDSVIQKRIFVGNIFHNADDCYSELLDRFGKFGDCQDFQFEKHNHFAFIDIRFNDEADFNKLRKSFNNVKFKGNILKVDEAKPNWESTWAVQHAKDLKEDIILNAKMKKKNWQHYKKMENVAKSWKDHKEVIAGRMREAPRKRSQLRNITFRINVNGSLKVYKCYKTKLWGYERNKELNDLVYKFTNNFWKNGYNHIVDRLDYSRAVKTVRFKNGLKQLTVSKDENVCSGEMDSDENMSEEEKEKNNVILNDLLKDFDFDKPMTLNDSDEELLTEQRKGEEEEEEEEEKEVNAPEYENVNKTKDQSTLPQEKPEERKEQDEGDGQEDNEFIPTFTKEIGQGTISNTETLRNLFNPNEAEPVSQFKLIEDSDNDIDHAKDVDVNQLEEEVSKSSDTLGLTSAPVPHVSRDKDNKNFLFFPHLQSPFLVGQTQLSKVRAPGRETMLSNWDEEFWANRGNWTRDMRRKMKDALKHRKRKQSKSGLLL

target: T1, Noc1-TAP (S. cerevisiae); test: co-IP; Noc1-TAP-containing preribosomal particles precipitated on IgG-Sepharose beads from total cell extracts of wild-type, snr190-[mut.C] and dbp7Δ strains; 2 h at 4 °C; A200-KCl buffer (20 mM Tris-HCl pH 8.0, 5 mM magnesium acetate, 200 mM KCl, 0.2% Triton-X100), final washes in A200-NaCl buffer; co-purified proteins detected by western blotting

| binding | Molecule |
| --- | --- |
| binds | Prp43 (from UniProt P53131 1-767) |
| binds | Npa1 (from UniProt P34241 1-1764) |
| binds | B1 |
| binds | B2 |
| binds | B3 |
| binds | B4 |

Source: publication PMC8536666
